# The whole screen tested about 580,000 compounds, of which about 6,100 (1.1%) were called active. Inconclusive results, whose numbers are uncertain, are shown with a selection of clear calls. The call rests on the fitted dose curve; in most records, active means well fitted inhibition curve with a large enough effect; inconclusive means small, poorly fitted or top-dose-only effect, or another doubt; inactive means no such curve, though single readings can be large or run the other way. A potency beside an inconclusive call is a rough fit, not a confirmed value.
# Chains of the proteins cited; added tags and fusions are not shown. Lines headed by an entry give the natural chain unless they say otherwise; changes in a name come on top.
# UniProt P18054: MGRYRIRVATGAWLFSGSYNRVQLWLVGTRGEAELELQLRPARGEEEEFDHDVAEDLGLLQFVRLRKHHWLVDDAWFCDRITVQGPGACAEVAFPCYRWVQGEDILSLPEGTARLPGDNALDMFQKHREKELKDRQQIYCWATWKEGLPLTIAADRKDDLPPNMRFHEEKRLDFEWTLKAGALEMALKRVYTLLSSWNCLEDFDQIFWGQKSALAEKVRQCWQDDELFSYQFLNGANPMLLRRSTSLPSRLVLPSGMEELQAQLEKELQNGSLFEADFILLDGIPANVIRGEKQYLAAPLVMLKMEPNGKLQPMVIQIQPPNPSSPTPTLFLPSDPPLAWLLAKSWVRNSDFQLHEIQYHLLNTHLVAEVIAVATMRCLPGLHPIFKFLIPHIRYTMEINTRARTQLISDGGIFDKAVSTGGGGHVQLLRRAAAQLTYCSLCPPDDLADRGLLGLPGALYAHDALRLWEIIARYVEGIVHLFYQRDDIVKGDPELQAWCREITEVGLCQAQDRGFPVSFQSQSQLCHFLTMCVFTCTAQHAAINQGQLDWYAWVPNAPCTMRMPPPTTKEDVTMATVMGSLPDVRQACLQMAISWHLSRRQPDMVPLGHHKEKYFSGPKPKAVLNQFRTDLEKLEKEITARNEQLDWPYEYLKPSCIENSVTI
# Biological target: Polyunsaturated fatty acid lipoxygenase ALOX12 (Homo sapiens) (UniProt P18054)
# Experiment: Primary qHTS assay for inhibitors of human arachidonate 12S-lipoxygenase (ALOX12): Round 2
# Details: purified 12hLO, xylenol orange hydroperoxide absorbance; series mostly up to 108 µM
# Outline: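 Purified human 12hLO at 150 nM in 25 mM Hepes, 0.01% Triton X-100, pH 7.0, preincubated 15 min at room temperature with compound. Reaction started with 40 uM arachidonic acid, 30 min at room temperature. Hydroperoxide measured by Fe-xylenol orange, 573/405 nm absorbance ratio.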
# Potency means the concentration at half of the fitted maximal effect.
row,SMILES,Potency
1,O=S(=O)(Nc1ccc(S(=O)(=O)Nc2ccccc2)cc1)c1ccccc1,inactive
2,Cc1ccc(OCC(=O)Nc2ccccc2N2CCCC2)c(C)c1,inactive
3,COc1ccc(/C(C)=N/Nc2ccccc2Cl)c(O)c1,"inconclusive: 70.8 µM [inhibitor, partial curve, poor fit]"
4,CCn1cc(CN2CCCC(C(=O)Nc3ccc(-c4cscn4)cc3)C2)cn1 (centres undefined),"inconclusive: 50.1 µM [inhibitor, partial curve, poor fit]"
5,CC(NC(=O)c1cccs1)c1ccc2c(c1)NC(=O)CO2 (centres undefined),inactive
6,O=c1[nH]c(CN2CCCCC2)nc2ccccc12,"inconclusive: 3.98 µM [inhibitor, full curve, poor fit]"
7,O=C(COC(=O)c1ccc2ccccc2n1)c1ccc(Cl)cc1,"inconclusive: 44.7 µM [inhibitor, partial curve, poor fit]"
8,CCc1cc2c(N=Nc3c(O)[nH]c4ccccc34)ncnc2s1,inactive
9,COc1ncccc1-c1cc2c(nc1OC)nc(CC1CC1)n2C,"inconclusive: 56.2 µM [inhibitor, full curve, poor fit]"
10,COCCN(C(=O)CSc1nc2ccccc2c(=O)n1CCOC)c1c(N)n(Cc2ccccc2)c(=O)[nH]c1=O,inactive
11,CC(=O)NCCc1ccc(C(=O)COC(=O)c2ccc(C)cc2O)s1,"inconclusive: 100 µM [inhibitor, single point]"
12,COc1cccc(/C=C(/C#N)c2ccccn2)c1OC(F)F,"inconclusive: 17.8 µM [inhibitor, full curve]"
13,OC(COc1ccc(Br)cc1)CN1CCC(Cc2ccccc2)CC1 (centres undefined),"inconclusive: 11.2 µM [inhibitor, partial curve, poor fit]"
14,CNC(=O)c1ccc(NC(=O)CCNC(=O)Nc2ccccc2)cc1,inactive
15,COc1ccccc1CN1CCCn2nc(C)c(-c3cccnc3N3CCOCC3)c21,inactive
16,CCOC(=O)C1CCCN(C(=O)c2ccc(F)c(Cl)c2)CC1 (centres undefined),inactive
17,CC(C)CCCCCCCCCCCCC(=O)NCC(=O)NC1C(O)C(O)C(Nc2ncnc3nc[nH]c23)OC1C(O)CO (centres undefined),inactive
18,O=C(OCc1cccc2ccccc12)c1ccc(N2CCOCC2)nc1,inactive
19,COc1cccc(CN(C)CC(=O)Nc2sc3c(c2C#N)CCC3)c1OC,inactive
20,Cc1ccc(NS(=O)(=O)c2ccc(C)c(NC(=S)NCCN3CCOCC3)c2)c(C)c1,"inconclusive: 112 µM [inhibitor, partial curve, poor fit]"
21,Cc1ccc(F)cc1NC(=O)N1CCN(C2c3ccccc3-c3ccccc32)CC1,inactive
22,O=C1Nc2ccccc2C1(c1ccccc1)c1ccccc1,"inconclusive: 35.5 µM [inhibitor, single point]"

# Some of the entries so far, tab-delimited.
row	SMILES	Potency
19	COc1cccc(CN(C)CC(=O)Nc2sc3c(c2C#N)CCC3)c1OC	inactive
20	Cc1ccc(NS(=O)(=O)c2ccc(C)c(NC(=S)NCCN3CCOCC3)c2)c(C)c1	inconclusive: 112 µM [inhibitor, partial curve, poor fit]

# Additional results.

row,SMILES,Potency
1,O=C1NC[C@H](CCCCN2C[C@@H](Cc3ccccc3)N(CC3CCCCC3)C(=O)C2=O)N(CCC2CCCCC2)C1=O,"inconclusive: 50.1 µM [inhibitor, partial curve, poor fit]"
2,CCC(C(=O)Nc1ccc(C(C)=O)cc1)n1c(C)c2cnn(-c3ccccc3)c(=O)c2c1C (centres undefined),"inconclusive: 79.4 µM [inhibitor, partial curve, poor fit]"
3,CCN(CC)c1ccc(NC(=O)CSc2ccsc2[N+](=O)[O-])c(C)c1,"inconclusive: 8.91 µM [inhibitor, partial curve, poor fit]"
4,N#CC1=C(N)OC2=C(C(=O)CC(c3ccccc3Cl)C2)C1c1ccc(Cl)cc1 (centres undefined),active: 15.8 µM
5,OC(CNCc1ccncc1)c1ccccc1 (centres undefined),"inconclusive: 100 µM [inhibitor, single point]"
6,CC(C)CC(CNC(=O)c1nn(-c2ccccc2)c(=O)c2ccccc12)N1CCOCC1 (centres undefined),inactive
7,C[C@@H](c1ccccc1)N1C[C@H](COCc2ccccc2)Oc2cc(N3CC[C@@H](N(C)C)C3)ccc2S1(=O)=O,"inconclusive: 5.62 µM [inhibitor, partial curve, poor fit]"
8,c1csc(-c2ccnc(N[C@H]3CO[C@H]4[C@@H]3OC[C@@H]4NCC3CCCCC3)n2)c1,"inconclusive: 89.1 µM [inhibitor, partial curve]"
9,CC(C)Oc1ccc(C(=O)Nc2ccc(Cl)c(S(=O)(=O)Nc3ccc(Cl)cc3)c2)cc1,"inconclusive: 31.6 µM [inhibitor, partial curve, poor fit]"
10,O=C(c1cc2ccccc2o1)N1CCN(S(=O)(=O)c2ccc(F)c(F)c2F)CC1,"inconclusive: 89.1 µM [inhibitor, single point]"
11,Cc1noc(C(C)Nc2ccc(N3CCCC3=O)c(Cl)c2)n1 (centres undefined),"inconclusive: 126 µM [inhibitor, single point]"
12,Cc1cc(C)n(-c2nc3ccccc3n3cnnc23)n1,"inconclusive: 126 µM [inhibitor, single point]"
13,CCN1CCN(C(=O)c2ccc3c(c2)N(Cc2ccc(F)cc2)C(=O)c2ccccc2S3=O)CC1 (centres undefined),"inconclusive: 44.7 µM [inhibitor, single point]"
14,CCc1cccc(NC(=O)c2ccc(Cn3ccn4nc5c(c4c3=O)CCCC5)cc2)c1,inactive
15,O=C(COc1cccc(C(F)(F)F)c1)N1CCN(c2ccc(O)cc2)CC1,"inconclusive: 70.8 µM [inhibitor, partial curve, poor fit]"
16,O=C(c1ccc(F)cc1)c1ccccc1C(=O)N1CCCC(C(F)(F)F)C1 (centres undefined),inactive
17,Cc1cccc(C(=O)NC(Nc2cccc3ccccc23)C(Cl)(Cl)Cl)c1 (centres undefined),"inconclusive: 44.7 µM [inhibitor, partial curve, poor fit]"
18,COc1ccc(/C=C2\N=C(SC)SC2=O)cc1,"inconclusive: 6.31 µM [inhibitor, full curve]"
19,O=C(Nc1nc2c(s1)CCCC2)c1ccc(Br)s1,"inconclusive: 44.7 µM [inhibitor, partial curve, poor fit]"
20,Cc1cc(C)n(-c2nc3ccccc3nc2Nc2ccc(F)cc2F)n1,inactive
21,COc1cccc(NC(=S)N/N=C2/CCCCc3ccccc32)c1,active: 44.7 µM
22,COc1cc(OC)cc(-c2cc3c(Nc4cccc(S(C)(=O)=O)c4)nccc3n2C)c1,"inconclusive: 112 µM [inhibitor, partial curve, poor fit]"

# From PubChem BioAssay AID1671190 (National Center for Advancing Translational Sciences (NCATS), 2021)
